For one substance, binding results are on record in doi:10.1101/079806.

By UniProt entry, the sequences of proteins in these tests, tags left out. Residues count along the entry.
UniProt P56818, residues 46-501: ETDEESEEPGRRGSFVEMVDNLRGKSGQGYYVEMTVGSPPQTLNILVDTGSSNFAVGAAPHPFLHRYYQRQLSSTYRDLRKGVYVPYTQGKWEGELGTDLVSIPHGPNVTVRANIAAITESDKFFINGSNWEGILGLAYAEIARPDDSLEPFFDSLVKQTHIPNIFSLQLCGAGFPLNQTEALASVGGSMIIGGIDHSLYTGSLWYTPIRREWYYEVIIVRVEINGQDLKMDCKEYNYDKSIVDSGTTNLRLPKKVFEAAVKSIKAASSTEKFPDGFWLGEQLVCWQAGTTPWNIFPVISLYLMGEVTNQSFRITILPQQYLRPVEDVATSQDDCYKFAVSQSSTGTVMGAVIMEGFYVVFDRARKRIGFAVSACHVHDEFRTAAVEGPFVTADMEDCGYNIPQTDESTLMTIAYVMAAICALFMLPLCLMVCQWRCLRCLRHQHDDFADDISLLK
UniProt P12023, residues 18-770: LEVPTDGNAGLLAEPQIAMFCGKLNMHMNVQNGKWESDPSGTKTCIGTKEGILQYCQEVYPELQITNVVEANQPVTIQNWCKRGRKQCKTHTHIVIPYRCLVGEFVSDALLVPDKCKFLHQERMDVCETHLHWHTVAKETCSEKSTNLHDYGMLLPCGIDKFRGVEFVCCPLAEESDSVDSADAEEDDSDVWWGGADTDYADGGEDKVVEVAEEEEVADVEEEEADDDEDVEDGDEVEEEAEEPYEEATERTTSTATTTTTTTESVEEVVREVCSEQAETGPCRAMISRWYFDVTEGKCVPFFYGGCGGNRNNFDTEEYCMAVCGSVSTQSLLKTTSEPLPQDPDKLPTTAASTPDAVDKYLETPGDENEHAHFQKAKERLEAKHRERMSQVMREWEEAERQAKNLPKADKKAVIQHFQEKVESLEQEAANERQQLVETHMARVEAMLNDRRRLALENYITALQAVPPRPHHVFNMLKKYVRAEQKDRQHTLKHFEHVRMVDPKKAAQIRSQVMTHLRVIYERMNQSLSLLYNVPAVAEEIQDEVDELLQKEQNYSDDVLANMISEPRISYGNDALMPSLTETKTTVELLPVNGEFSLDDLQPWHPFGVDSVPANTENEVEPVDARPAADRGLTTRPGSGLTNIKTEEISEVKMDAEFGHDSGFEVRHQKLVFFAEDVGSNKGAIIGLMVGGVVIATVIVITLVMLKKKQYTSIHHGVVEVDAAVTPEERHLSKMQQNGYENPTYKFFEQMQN

These are yes or no findings as the source states them, for the method shown. Binding seen in cells or lysates may run through a third protein. Some entries that bind do so weakly or less than the wild type.

The target of the experiment is BACE1 (the β-secretase in the brain), mouse (mouse (endogenous in forebrain)) (UniProt P56818). Description: co-IP.

Consider “Amyloid Precursor Protein (APP), mouse (from UniProt P12023 18-770)”, for which the binding result is listed as “binds”.
